Experimental data reported in patent US7012082B2, “Method of correcting HERG channel dysfunction” (priority 2002, dated 2006).
Read-outs that look alike come from different tables or passages of the source.

Assays:
clinical = settings: human, in vivo, po, 60 mg
[1] = healthy volunteers, cited from earlier work
[2] = even in doses that exceed ten-fold recommendations; Pratt, et al., 1999b; cited from earlier work

Cmax (clinical): 262 nM
Compound: CC(C)(C(=O)O)c1ccc(C(O)CCCN2CCC(C(O)(c3ccccc3)c3ccccc3)CC2)cc1 (stereo not shown) [fexofenadine]
mean Cmax ([1]; oral 60 mg): 141 ng/mL
mean Cmax ([1]; oral 180 mg): 494 ng/mL
effect on the QT interval on the ECG [2]: not affect the QT interval
